The results in this text go back to PMC10472876.

Protein sequences, listed by entry. Tags and fused reporters are not part of them. Residues count along the entry.
UniProt Q14790: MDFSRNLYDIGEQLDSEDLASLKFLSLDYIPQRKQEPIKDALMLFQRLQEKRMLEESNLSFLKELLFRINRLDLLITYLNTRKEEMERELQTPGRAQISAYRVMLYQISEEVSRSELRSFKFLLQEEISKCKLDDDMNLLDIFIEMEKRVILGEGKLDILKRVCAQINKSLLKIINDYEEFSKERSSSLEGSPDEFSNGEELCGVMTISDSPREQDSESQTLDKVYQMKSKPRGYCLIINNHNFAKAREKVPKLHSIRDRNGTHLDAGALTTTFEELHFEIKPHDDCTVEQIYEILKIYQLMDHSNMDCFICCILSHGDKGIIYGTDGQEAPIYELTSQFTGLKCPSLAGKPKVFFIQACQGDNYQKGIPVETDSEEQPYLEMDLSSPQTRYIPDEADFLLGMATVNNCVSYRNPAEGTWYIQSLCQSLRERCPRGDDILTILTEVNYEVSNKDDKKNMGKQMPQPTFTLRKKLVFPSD
UniProt P50591, residues 95-281: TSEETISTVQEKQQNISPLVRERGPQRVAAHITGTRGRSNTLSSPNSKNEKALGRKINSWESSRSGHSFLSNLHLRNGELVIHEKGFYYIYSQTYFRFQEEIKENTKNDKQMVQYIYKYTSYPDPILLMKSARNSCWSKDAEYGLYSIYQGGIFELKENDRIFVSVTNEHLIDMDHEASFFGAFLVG

Results are given in words; binding and its absence hold for the method and conditions named. In cells and extracts the contact can be indirect. Here binding means that the protein was enriched with, or labelled near, the bait; the list need not be complete.

In this assay the target is CASP8 (caspase 8), endogenous (human (endogenous in HeLa)) (UniProt Q14790). Kind of assay: affinity purification with mass spectrometry; as a1; the recombinant purified HF-TNFSF10/TRAIL added to living HeLa cells (1 µg/ml, 3 h) is found in the anti-CASP8 bTIP; only the binder purified.

Consider “HF-TNFSF10/TRAIL (FLAG- and 6×His-tagged extracellular portion of human TNFSF10/TRAIL, AA95–281) (from UniProt P50591 95-281) (ligand)”, for which the binding result is given as “binds”.
